Some of these results come from one statement about several compounds together.
Columns and labels:
Assay type in all cases: in vivo
Venturia inaequalis = test: Test on the controlling effect against apple tree scab; conditions: apple seedling (Ohrin), foliar application, application rate 50 mL, 14 days after inoculation
Botrytics cinerea = test: Test on the controlling effect against gray mold of cucumber plant; conditions: cucumber plant (Suyou), foliar application, active-ingredient concentration 200 ppm, application rate 50 mL, 7 days after inoculation
[1] = test system: Blumeria graminis f. sp. hordei; test: Test on the controlling effect against powdery mildew of barley plant; conditions: barley plant (Kantoh No. 6), foliar application, application rate 50 mL, 7 days after inoculation
Excerpt: Equation (1): Protective value (%)=A/B×100 (1) where: • A; [(Ratio of the afflicted spotted leaf surface area in non-treated section to the total leaf surface area)−(Ratio of the afflicted spotted leaf surface area in treated section to the total leaf surface area)] • B; (Ratio of the afflicted spotted leaf surface area in non-treated section to the total leaf surface area) Criteria of Judgment: 0: Less than […] in protective value 1: 10 to 19% in protective value 2: 20 to 29% in protective value 3: 30 to 39% in protective value 4: 40 to 49% in protective value 5: 50 to 59% in protective value 6: 60 to 69% in protective value 7: 70 to 79% in protective value 8: 80 to 89% in protective value 9: 90 to 99% in protective value 10: 100% in protective value A one-leaf aged barley plant (the cultivar: Kantoh No. 6) raised as a seedling in a pot of 6 cm in diameter was subjected to foliar application with a diluted emulsion of the emulsifiable concentrate of the compound of the present invention prepared in accordance with Agrochemical Formulation Example 1, which diluted emulsion was produced by diluting the concentrate with water to the specifically determined volume. On the following day after the application, the barley plant was inoculated by sprinkling with spores as obtained from barley plants afflicted with the causal fungus of powdery mildew (Blumeria graminis f. sp. hordei), and maintained at 20° C. under humid conditions. Seven days after the inoculation, the controlling effect was assessed according the criteria of judgment as set forth in Test Example 1.

Puccinia recondita = test: Test on the controlling effect against brown leaf rust of wheat plant; conditions: wheat plant (Hokushin), foliar application, application rate 50 mL, 7 days after inoculation
[2] = active-ingredient concentration 10 ppm
[3] = active-ingredient concentration 50 ppm
[4] = active-ingredient concentration 200 ppm

O=C(Nc1ccccc1-c1cccc(Cl)c1)c1nccnc1C(F)(F)F [3-3]
10 (100% in protective value): controlling effect assessed according to the criteria of judgment (protective value) (Venturia inaequalis; [2]) | controlling effect assessed according to the criteria of judgment (protective value) (Venturia inaequalis; [3]) | controlling effect assessed according to the criteria of judgment (protective value) (Botrytics cinerea) | controlling effect assessed according to the criteria of judgment [1, 3] | controlling effect assessed according to the criteria of judgment [1, 4] | controlling effect assessed according to the criteria of judgment (Puccinia recondita; [3]) | controlling effect assessed according to the criteria of judgment (Puccinia recondita; [4])

O=C(Nc1ccccc1-c1cccc(C(F)(F)F)c1)c1nccnc1C(F)(F)F [3-4]
10 (100% in protective value): controlling effect assessed according to the criteria of judgment (protective value) (Venturia inaequalis; [2]) | controlling effect assessed according to the criteria of judgment (protective value) (Venturia inaequalis; [3]) | controlling effect assessed according to the criteria of judgment (protective value) (Botrytics cinerea) | controlling effect assessed according to the criteria of judgment [1, 3] | controlling effect assessed according to the criteria of judgment [1, 4] | controlling effect assessed according to the criteria of judgment (Puccinia recondita; [3]) | controlling effect assessed according to the criteria of judgment (Puccinia recondita; [4])

O=C(Nc1ccccc1-c1ccc(F)cc1)c1nccnc1C(F)(F)F [3-5]
10 (100% in protective value): controlling effect assessed according to the criteria of judgment (protective value) (Venturia inaequalis; [3]) | controlling effect assessed according to the criteria of judgment (protective value) (Botrytics cinerea) | controlling effect assessed according to the criteria of judgment [1, 3] | controlling effect assessed according to the criteria of judgment [1, 4] | controlling effect assessed according to the criteria of judgment (Puccinia recondita; [4])

O=C(Nc1ccccc1-c1ccc(C(F)(F)F)cc1)c1nccnc1C(F)(F)F [3-11]
10 (100% in protective value): controlling effect assessed according to the criteria of judgment (protective value) (Venturia inaequalis; [2]) | controlling effect assessed according to the criteria of judgment (protective value) (Venturia inaequalis; [3]) | controlling effect assessed according to the criteria of judgment (protective value) (Botrytics cinerea) | controlling effect assessed according to the criteria of judgment [1, 3] | controlling effect assessed according to the criteria of judgment [1, 4] | controlling effect assessed according to the criteria of judgment (Puccinia recondita; [3]) | controlling effect assessed according to the criteria of judgment (Puccinia recondita; [4])

O=C(Nc1ccccc1-c1ccc(OC(F)(F)F)cc1)c1nccnc1C(F)(F)F [3-14]
10 (100% in protective value): controlling effect assessed according to the criteria of judgment (protective value) (Venturia inaequalis; [2]) | controlling effect assessed according to the criteria of judgment (protective value) (Venturia inaequalis; [3]) | controlling effect assessed according to the criteria of judgment (protective value) (Botrytics cinerea) | controlling effect assessed according to the criteria of judgment [1, 3] | controlling effect assessed according to the criteria of judgment [1, 4] | controlling effect assessed according to the criteria of judgment (Puccinia recondita; [4])

CSc1ccc(-c2ccccc2NC(=O)c2nccnc2C(F)(F)F)cc1 [3-15]
10 (100% in protective value): controlling effect assessed according to the criteria of judgment (protective value) (Venturia inaequalis; [3]) | controlling effect assessed according to the criteria of judgment (protective value) (Botrytics cinerea) | controlling effect assessed according to the criteria of judgment [1, 4] | controlling effect assessed according to the criteria of judgment (Puccinia recondita; [4])

CON=C(C)c1ccc(-c2ccccc2NC(=O)c2nccnc2C(F)(F)F)cc1 [3-18]
10 (100% in protective value): controlling effect assessed according to the criteria of judgment (protective value) (Venturia inaequalis; [2]) | controlling effect assessed according to the criteria of judgment (protective value) (Venturia inaequalis; [3]) | controlling effect assessed according to the criteria of judgment (protective value) (Botrytics cinerea) | controlling effect assessed according to the criteria of judgment [1, 3] | controlling effect assessed according to the criteria of judgment [1, 4] | controlling effect assessed according to the criteria of judgment (Puccinia recondita; [3]) | controlling effect assessed according to the criteria of judgment (Puccinia recondita; [4])

From patent US8168638B2, “Pyrazinecarboxamide derivatives and plant disease controlling agents containing the same” (Nihon Nohyaku Co., Ltd., priority 2005, dated 2012)
